Consider one molecule from article PMC12411616.

Results are given in words; binding and its absence hold for the method and conditions named. Binding seen in cells or lysates may run through a third protein. Some binding calls cover weakened binding; strength is not graded here.

The assay concerns the target cyclophilin D (CypD), endogenous (human (endogenous in MM cell lines and HEK293)), P30405. Briefly: co-IP; Fig. 4r; cells overexpressing circp53–209aa or circp53–209aa-R175H; bait and cell line not told in the text or legend. To be noted: remark: other sources report otherwise.

B1: TRAP1, endogenous, Q12931 60-704 (protein)
chain: STQTAEDKEEPLHSIISSTESVQGSTSKHEFQAETKKLLDIVARSLYSEKEVFIRELISNASDALEKLRHKLVSDGQALPEMEIHLQTNAEKGTITIQDTGIGMTQEELVSNLGTIARSGSKAFLDALQNQAEASSKIIGQFGVGFYSAFMVADRVEVYSRSAAPGSLGYQWLSDGSGVFEIAEASGVRTGTKIIIHLKSDCKEFSSEARVRDVVTKYSNFVSFPLYLNGRRMNTLQAIWMMDPKDVREWQHEEFYRYVAQAHDKPRYTLHYKTDAPLNIRSIFYVPDMKPSMFDVSRELGSSVALYSRKVLIQTKATDILPKWLRFIRGVVDSEDIPLNLSRELLQESALIRKLRDVLQQRLIKFFIDQSKKDAEKYAKFFEDYGLFMREGIVTATEQEVKEDIAKLLRYESSALPSGQLTSLSEYASRMRAGTRNIYYLCAPNRHLAEHSPYYEAMKKKDTEVLFCFEQFDELTLLHLREFDKKKLISVETDIVVDHYKEEKFEDRSPAAECLSEKETEELMAWMRNVLGSRVTNVKVTLRLDTHPAMVTVLEMGAARHFLRMQQLAKTQEERAQLLQPTLEINPRHALIKKLNQLRASEPGLAQLLVDQIYENAMIAAGLVDDPRAMVGRLNELLVKALERH
Consider B1, for which the binding entry is listed as “binds”.
